According to PMC8677787:
No constants are given. Whether binding was seen depends on the method and setting. In cells and extracts the contact can be indirect. Some results given as binding are weak or reduced against the parent protein; the word gives no strength.

The chains behind the UniProt entries cited, without tags or fusion partners.
UniProt P46527: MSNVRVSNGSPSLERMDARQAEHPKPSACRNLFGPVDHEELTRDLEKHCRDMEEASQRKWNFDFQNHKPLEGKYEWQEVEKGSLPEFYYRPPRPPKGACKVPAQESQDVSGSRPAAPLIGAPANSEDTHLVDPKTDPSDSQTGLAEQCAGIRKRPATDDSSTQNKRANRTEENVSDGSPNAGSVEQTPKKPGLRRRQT
UniProt P24385: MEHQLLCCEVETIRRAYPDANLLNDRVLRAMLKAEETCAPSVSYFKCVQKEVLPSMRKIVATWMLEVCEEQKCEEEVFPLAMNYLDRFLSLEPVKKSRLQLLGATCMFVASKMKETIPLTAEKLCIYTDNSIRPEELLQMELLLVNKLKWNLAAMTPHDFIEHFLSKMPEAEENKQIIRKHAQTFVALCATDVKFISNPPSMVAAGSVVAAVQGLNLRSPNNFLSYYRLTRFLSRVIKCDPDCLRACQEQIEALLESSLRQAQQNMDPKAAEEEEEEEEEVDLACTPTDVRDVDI

Biological target: p27^kip Cdk inhibitor (human (endogenous in human primary preadipocytes)) (UniProt P46527)
Assay: co-IP; IP with anti-p27kip antibody (1:50) from cytoplasmic and nuclear fractions (NE-PER kit) of human primary preadipocytes transfected with empty vector, THRA or THRA K283Q/K288R, synchronised by serum withdrawal and re-fed serum for 9 h; immunoblot with anti-cyclin D1

binding: binds
Substance: cyclin D1 (from UniProt P24385 1-295)
